Results as given in the supplement of paper PMC12282887.
The source gives many values for each of these; only a part stands here.

Columns and labels:
Assay in all cases: fitness (OD AUC treated / untreated) (fraction); higher = more growth
E. coli BW25113 DmicF = settings: caffeine concentration 55.4857 µg/ml
Protocol: (§1)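 MIC curves of ciprofloxacin or amoxicillin, with or without 55.5 µg/ml caffeine, against E. coli BW25113 wild type, deletion mutants (ΔmicF, ΔompF, Δrob) and complemented strains. Assays ran in LB at 37°C in 96/384-well plates. Fitness is the OD600 AUC over 8 h divided by the no-drug control; 3-4 biological replicates.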

[1] = test system: E. coli BW25113 DompF + ompF; settings: antibiotic concentration 0.00682 µg/ml; caffeine concentration 0 µg/ml
Protocol: as §1

E. coli BW25113 DompF = test system: E. coli BW25113 DompF
Protocol: as §1

[2] = test system: E. coli BW25113 Drob + rob
Protocol: as §1

O=C(O)c1cn(C2CC2)c2cc(N3CCNCC3)c(F)cc2c1=O [Ciprofloxacin]
E. coli BW25113 DmicF
Settings	fitness
antibiotic concentration 0.00909 µg/ml	0.516
antibiotic concentration 0.01136 µg/ml	0.325
antibiotic concentration 0.01364 µg/ml	0.139
antibiotic concentration 0.01591 µg/ml	0.0821
antibiotic concentration 0.01818 µg/ml	0.04
antibiotic concentration 0.02045 µg/ml	0.0155

Settings	fitness
[1]	0.934

fitness
Settings	caffeine concentration 0 µg/ml	caffeine concentration 55.4857 µg/ml
E. coli BW25113 DompF, antibiotic concentration 0.00682 µg/ml	1.1	1.01
E. coli BW25113 DompF, antibiotic concentration 0.01364 µg/ml	1.01	1.03
E. coli BW25113 DompF, antibiotic concentration 0.02045 µg/ml	0.817	0.776
E. coli BW25113 DompF, antibiotic concentration 0.02727 µg/ml	0.495	0.566
E. coli BW25113 DompF, antibiotic concentration 0.03409 µg/ml	0.214	0.337
E. coli BW25113 DompF, antibiotic concentration 0.04091 µg/ml	0.097	0.216
E. coli BW25113 DompF, antibiotic concentration 0.04773 µg/ml	0.0484	0.0767
E. coli BW25113 DompF, antibiotic concentration 0.05455 µg/ml	0.031	0.0481
E. coli BW25113 DompF, antibiotic concentration 0.06136 µg/ml	0.0281	0.065
E. coli BW25113 DompF, antibiotic concentration 0.06818 µg/ml	0.0295	0.0558
E. coli BW25113 DompF, antibiotic concentration 0.075 µg/ml	0.0232	0.0453
[2], antibiotic concentration 0.00227 µg/ml	1.09	–
[2], antibiotic concentration 0.00455 µg/ml	0.951	0.983
[2], antibiotic concentration 0.00682 µg/ml	0.613	0.826
[2], antibiotic concentration 0.00909 µg/ml	0.219	0.595
[2], antibiotic concentration 0.01136 µg/ml	0.0498	0.259
[2], antibiotic concentration 0.01364 µg/ml	0.0351	0.0964
[2], antibiotic concentration 0.01591 µg/ml	0.0317	0.0528
[2], antibiotic concentration 0.01818 µg/ml	0.0372	0.0395
[2], antibiotic concentration 0.02045 µg/ml	0.0354	0.0361
[2], antibiotic concentration 0.02273 µg/ml	0.0349	0.0354
[2], antibiotic concentration 0.025 µg/ml	0.0306	0.0359
